# Source: paper PMC7819943, “Rice protein-binding microarrays: a tool to detect cis-acting elements near promoter regions in rice”
# Sequences of proteins named here, by UniProt entry; tags and fusion partners are left off.
# UniProt Q0JBA9, entry or part of it: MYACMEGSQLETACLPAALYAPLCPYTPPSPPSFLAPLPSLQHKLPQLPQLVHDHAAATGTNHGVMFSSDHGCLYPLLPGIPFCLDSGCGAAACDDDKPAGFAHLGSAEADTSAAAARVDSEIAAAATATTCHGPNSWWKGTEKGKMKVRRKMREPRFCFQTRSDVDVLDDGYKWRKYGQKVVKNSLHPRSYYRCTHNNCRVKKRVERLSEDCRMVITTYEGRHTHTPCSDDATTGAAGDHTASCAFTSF
# Some of the results follow.
# Biological target: OsWRKY34 (Oryza sativa, UniProt Q0JBA9 1-250)
# Assay: protein-binding microarray (RPBM); PBS, 2% BSA, 51.3 ng/ul salmon testes DNA, 50 uM zinc acetate, 200 nM TF, 25 C, 1 h; high values mean tight binding
# Conditions: protein: recombinant; tags: N-terminal polyhistidine and DsRed monomer fusion (pET32a); label: CyDye5-dUTP incorporated in the synthesized complementary strand; 3' TTTTT single-stranded linker to array surface; dsDNA, one strand shown
# Procedure, shortened: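 The binding signal is fluorescence intensity per feature, in arbitrary units, read on an Axon 4000B scanner. Polyhistidine- and DsRed-tagged transcription factors (N-terminal fusions) from E. coli BL21-CodonPlus were purified on Ni–NTA and applied at 200 nM for 1 h at 25 °C to a double-stranded, BSA-blocked custom Agilent array in buffer with 50 µM zinc acetate.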
row,Sequence,binding signal
1,CTTCTTTATTGCTCAGTTATAGATGTGCGCTCATTATTTGCGGAGTCACCTAGTGCAG,8860 fluorescence intensity (a.u.)
2,AGCCACCTCTCTCTCTCCTATCGTTTTGACCACAGAAACCCGGAGTCACCTAGTGCAG,9680 fluorescence intensity (a.u.)
3,CCGGCCCACGTCAGCCTGCCGCGCCTACCGTTGACTCTCCCGGAGTCACCTAGTGCAG,11600 fluorescence intensity (a.u.)
4,AATGGCATGCACGTGCTTAATTAATTCCCATTTGCATGTTCGGAGTCACCTAGTGCAG,8880 fluorescence intensity (a.u.)
5,CGCCGAACAATCCACTCCGCCCTTCATATGCGCGCACCGCCGGAGTCACCTAGTGCAG,8410 fluorescence intensity (a.u.)
6,TCTTCGTCGACACCACCCCAGCCGGTGTCCCCACGCGCTCCGGAGTCACCTAGTGCAG,10100 fluorescence intensity (a.u.)
7,TCCCCTCACGGTGGCGTGACATGCACCAATCTCGCCCCAACGGAGTCACCTAGTGCAG,8820 fluorescence intensity (a.u.)
8,GTGGGGCCCACTGCTCGAGTGTCGGGGTATGGTCTCGGGTCGGAGTCACCTAGTGCAG,9290 fluorescence intensity (a.u.)
9,TTACTCTCTTTAGTCACAAATATTTAACACGGTTGACTTTCGGAGTCACCTAGTGCAG,8570 fluorescence intensity (a.u.)
10,TCTGTGGTAAGCATACCCATTAATTAATTTACGGCCACTTCGGAGTCACCTAGTGCAG,8380 fluorescence intensity (a.u.)
11,ATCGCCATATAGGCGCCACGTGGAACGAAGACTCGGTCAACGGAGTCACCTAGTGCAG,9350 fluorescence intensity (a.u.)
12,ATGGATGCGTGTGGGAGATGGGTTGGACTGGCAAATTAAACGGAGTCACCTAGTGCAG,15100 fluorescence intensity (a.u.)
13,CCTTCCCGATCCGCCCGCCTCGCCTCGTCTCCCGCCCCACCGGAGTCACCTAGTGCAG,9010 fluorescence intensity (a.u.)
14,GATGACGTTGTTAACTTTTTATCACACGTTTGACCATTCGCGGAGTCACCTAGTGCAG,8510 fluorescence intensity (a.u.)
15,TCTTTATTTAGAAGATGCTTCCACCCTATATCACTCGAGTCGGAGTCACCTAGTGCAG,8960 fluorescence intensity (a.u.)
16,TTTCACCCAAGCTTTCTTGCTTCCATGCTTTTTTCTTGTCCGGAGTCACCTAGTGCAG,8230 fluorescence intensity (a.u.)
17,TCTCATCTCTAGTAGTACTAATAGACTTCCAACAACTTCCCGGAGTCACCTAGTGCAG,8030 fluorescence intensity (a.u.)
18,TTCACCTTTCCTCGCTTCAATTTACTACCCTGTTCATTCACGGAGTCACCTAGTGCAG,10200 fluorescence intensity (a.u.)
19,TTTTTTCTACTACCTCCGTTCCATATTATTTGTCGTTTTGCGGAGTCACCTAGTGCAG,15700 fluorescence intensity (a.u.)
20,ACCGATCGCTCGCTCGCTTCCCGCGATCTCGCCTCCGAGACGGAGTCACCTAGTGCAG,9230 fluorescence intensity (a.u.)
21,ACGCTTTCCTACTAGGCTTACGTAACATGTTGATCTACTACGGAGTCACCTAGTGCAG,10400 fluorescence intensity (a.u.)

row,Sequence,binding signal
1,CTCCATCTGCGTATTTTCCAACACATCTCTCTTGCAGTTCCGGAGTCACCTAGTGCAG,9550 fluorescence intensity (a.u.)
2,CTTGCATCCGTCCTCATCGGCACGAAAGTATATTCTTTATCGGAGTCACCTAGTGCAG,9860 fluorescence intensity (a.u.)
3,CTTACACACACAAACTTTCAACTTTTCCGTCACATCGTTCCGGAGTCACCTAGTGCAG,9240 fluorescence intensity (a.u.)
4,GTTAGACATATGTTTAAAAGTCAACGATGTTATCTATTAACGGAGTCACCTAGTGCAG,9360 fluorescence intensity (a.u.)
5,GTCGGCACCTTTGCCTCATTTTTATTGCTGCCGGTTCTAACGGAGTCACCTAGTGCAG,8800 fluorescence intensity (a.u.)
6,ATTCTTCTTGGGTTAAAATTGTTACTATTTTTTTCTACAACGGAGTCACCTAGTGCAG,10000 fluorescence intensity (a.u.)
7,AAAACAATTTGGTAATGTCTGGCATGTTTATCCTCCTATACGGAGTCACCTAGTGCAG,8270 fluorescence intensity (a.u.)
8,GATTTTGACGTCTATGATGAGAGGGGCGATGTGTATCAAACGGAGTCACCTAGTGCAG,8760 fluorescence intensity (a.u.)
9,CTCGCTCGCTGCCACCGCCTCCTTCGCTGCCACCATCTCCCGGAGTCACCTAGTGCAG,10900 fluorescence intensity (a.u.)
10,CTCTCTCCTCGTCCTGCCTCGCGACTCGGCTCCGCGAAGCCGGAGTCACCTAGTGCAG,11700 fluorescence intensity (a.u.)
11,CTTAGCCTAACAAAACTAATACTCGCCATGCGTCCATCCCCGGAGTCACCTAGTGCAG,8210 fluorescence intensity (a.u.)
12,AAAACCACCAAATCGCTTATTTTGCTTCGTTGTGATTTCCCGGAGTCACCTAGTGCAG,11000 fluorescence intensity (a.u.)
13,AAAAAAGTCAACCCATGTACACCGTCCGATCTCCATCCGACGGAGTCACCTAGTGCAG,8110 fluorescence intensity (a.u.)
14,ATCAATGGTATAGTTTTCTTGGATAAAATTTCCACTACCACGGAGTCACCTAGTGCAG,8840 fluorescence intensity (a.u.)
15,CGCATCACATCCCGGTGAGCATCCCTATCCGTCACGCTCACGGAGTCACCTAGTGCAG,9710 fluorescence intensity (a.u.)
16,GGACTGGGGCAGGAGGGAGGGGAGGAGCAGGTCGGAGAGTCGGAGTCACCTAGTGCAG,9740 fluorescence intensity (a.u.)
17,AACCGGACAGGTGTGGGCGTTGACTAGTCTTCTTTAGTTTCGGAGTCACCTAGTGCAG,13300 fluorescence intensity (a.u.)
18,ATGATTTGTTCCCACGACCTCCATTGTACCGAAATAATATCGGAGTCACCTAGTGCAG,9050 fluorescence intensity (a.u.)
19,GCACGGCGACGATTTCCGGTGCACACATGCTCACTACTGTCGGAGTCACCTAGTGCAG,9900 fluorescence intensity (a.u.)
20,TGTTTCGGTCACTCCTGGCTTGAATTATCAGCAGTGACGACGGAGTCACCTAGTGCAG,8330 fluorescence intensity (a.u.)
21,TTTTGCCACCGACCTGCTTTGCCGGCCGGCCGGCCGCCCCCGGAGTCACCTAGTGCAG,8300 fluorescence intensity (a.u.)

# 2 records drawn at random from those above:
row,Sequence,binding signal
20,ACCGATCGCTCGCTCGCTTCCCGCGATCTCGCCTCCGAGACGGAGTCACCTAGTGCAG,9230 fluorescence intensity (a.u.)
19,TTTTTTCTACTACCTCCGTTCCATATTATTTGTCGTTTTGCGGAGTCACCTAGTGCAG,15700 fluorescence intensity (a.u.)
